Results taken from paper doi:10.1101/2020.05.07.082735.
Where two headings read alike, the source gives them in different places. These are yes or no findings as the source states them, for the method shown. For some assays here: In cells and extracts the contact can be indirect. Some entries that bind do so weakly or less than the wild type. Where a sequence is shown, tags or fusion partners need not be part of it.

The chains behind the UniProt entries cited, without tags or fusion partners.
UniProt Q8GW32: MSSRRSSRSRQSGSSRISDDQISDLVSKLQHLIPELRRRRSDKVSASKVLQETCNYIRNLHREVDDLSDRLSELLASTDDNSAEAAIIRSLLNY
UniProt Q9LXR7: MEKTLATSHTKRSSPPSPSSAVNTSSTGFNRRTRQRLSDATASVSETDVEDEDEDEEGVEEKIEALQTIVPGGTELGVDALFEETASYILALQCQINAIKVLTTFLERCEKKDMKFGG
UniProt Q9M0B9: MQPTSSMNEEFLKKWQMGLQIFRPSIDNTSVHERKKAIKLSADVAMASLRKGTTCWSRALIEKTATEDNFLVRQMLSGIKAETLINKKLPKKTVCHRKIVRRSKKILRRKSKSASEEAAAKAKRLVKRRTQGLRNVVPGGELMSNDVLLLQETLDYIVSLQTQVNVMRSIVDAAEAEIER

Legend:
[1] = biological target: KIDARI (KDR), split Venus fusion for BiFC (A. thaliana) (UniProt Q8GW32); experiment: split reporter
[2] = biological target: KIDARI (KDR), GAL4 two-hybrid fusion (A. thaliana) (UniProt Q8GW32); experiment: two-hybrid
[3] = biological target: T1, PHYTOCHROME-… FACTOR 7 (PIF7), GAL4 two-hybrid fusion (A. thaliana) (UniProt Q570R7); experiment: two-hybrid
T1 sequence: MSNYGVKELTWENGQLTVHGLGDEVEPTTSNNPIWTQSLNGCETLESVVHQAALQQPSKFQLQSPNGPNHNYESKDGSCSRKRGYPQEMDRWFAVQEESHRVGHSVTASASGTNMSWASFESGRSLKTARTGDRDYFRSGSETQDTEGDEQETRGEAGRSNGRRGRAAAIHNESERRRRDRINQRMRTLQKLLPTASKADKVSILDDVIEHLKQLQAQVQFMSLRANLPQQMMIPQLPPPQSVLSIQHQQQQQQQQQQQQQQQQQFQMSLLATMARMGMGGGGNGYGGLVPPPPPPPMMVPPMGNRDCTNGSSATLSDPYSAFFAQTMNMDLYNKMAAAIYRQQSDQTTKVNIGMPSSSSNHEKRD

[4] = biological target: T2, LONG HYPOCOTYL IN FAR-RED 1 (HFR1), GAL4 two-hybrid fusion (A. thaliana) (UniProt Q9FE22); experiment: two-hybrid
T2 sequence: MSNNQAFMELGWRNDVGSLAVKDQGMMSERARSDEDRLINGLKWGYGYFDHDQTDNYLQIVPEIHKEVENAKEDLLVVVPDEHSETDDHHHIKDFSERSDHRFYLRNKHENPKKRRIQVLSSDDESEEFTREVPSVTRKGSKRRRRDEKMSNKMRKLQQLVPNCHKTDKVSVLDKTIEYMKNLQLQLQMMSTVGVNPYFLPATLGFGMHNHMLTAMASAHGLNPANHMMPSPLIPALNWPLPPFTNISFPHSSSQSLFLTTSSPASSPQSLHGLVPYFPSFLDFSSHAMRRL

[5] = biological target: T2, LONG HYPOCOTYL IN FAR-RED 1 (HFR1), GAL4 two-hybrid fusion (A. thaliana); experiment: two-hybrid; remark: listed apart in the source
[6] = biological target: KIDARI (KDR), GAL4 two-hybrid fusion (A. thaliana) (UniProt Q8GW32); experiment: two-hybrid; remark: listed apart in the source
[7] = biological target: KIDARI (KDR), GAL4 two-hybrid fusion (A. thaliana) (UniProt Q8GW32); experiment: two-hybrid; remark: listed apart in the source
[8] = biological target: T3, PHYTOCHROME RAPIDLY REGULATED 1 (PAR1), GAL4 two-hybrid fusion, full-length CDS (A. thaliana) (UniProt Q9SJH0); experiment: two-hybrid
T3 sequence: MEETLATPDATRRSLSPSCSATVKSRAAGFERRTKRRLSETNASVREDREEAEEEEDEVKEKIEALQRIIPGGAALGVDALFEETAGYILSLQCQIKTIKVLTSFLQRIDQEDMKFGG

PHYTOCHROME RAPIDLY REGULATED 2 (PAR2), split Venus fusion for BiFC (from UniProt Q9LXR7 1-118)
binding [1]: binds

IBH1-LIKE 1 (IBL1), split Venus fusion for BiFC (from UniProt Q9M0B9 1-180)
binding [1]: binds

PHYTOCHROME RAPIDLY REGULATED 2 (PAR2), GAL4 activation domain fusion, full-length CDS (from UniProt Q9LXR7 1-118)
binding [2]: binds
binding [3]: no binding

ATBS1-… FACTOR 4 (AIF4), split Venus fusion for BiFC (from UniProt O80482 1-207)
binding [1]: binds

KIDARI (KDR), GAL4 two-hybrid fusion (from UniProt Q8GW32 1-94)
binding [4]: no binding
binding [5]: no binding

ATBS1-… FACTOR 4 (AIF4), GAL4 activation domain fusion (from UniProt O80482 1-207)
binding [6]: binds
binding [2]: binds

IBH1-LIKE 1 (IBL1), GAL4 activation domain fusion (from UniProt Q9M0B9 1-180)
binding [6]: binds
binding [2]: binds

B1: ILI1 BINDING BHLH 1 (IBH1), GAL4 activation domain fusion (protein, UniProt Q9SKX1 1-156)
chain: MASADKLINTDVPEKDVFAFHFLQSLSNLRKQNPFDTPDQKNYRVRKIKKAAYVSMARAAGGSSRLWSRALLRRADKDDNKIVRFSRRKWKISSKRRRSNQRAPVVEEAAERLRNLVPGGGGMETSKLMEETAHYIKCLSMQVKVMQCLVDGLSPK
binding [6]: binds
binding [2]: binds

B2: ILI1 BINDING BHLH 1 (IBH1), split Venus fusion for BiFC (protein, UniProt Q9SKX1 1-156)
chain: MASADKLINTDVPEKDVFAFHFLQSLSNLRKQNPFDTPDQKNYRVRKIKKAAYVSMARAAGGSSRLWSRALLRRADKDDNKIVRFSRRKWKISSKRRRSNQRAPVVEEAAERLRNLVPGGGGMETSKLMEETAHYIKCLSMQVKVMQCLVDGLSPK
binding [1]: binds

B3: LONG HYPOCOTYL IN FAR-RED 1 (HFR1), GAL4 two-hybrid fusion (protein, UniProt Q9FE22 1-292)
chain: MSNNQAFMELGWRNDVGSLAVKDQGMMSERARSDEDRLINGLKWGYGYFDHDQTDNYLQIVPEIHKEVENAKEDLLVVVPDEHSETDDHHHIKDFSERSDHRFYLRNKHENPKKRRIQVLSSDDESEEFTREVPSVTRKGSKRRRRDEKMSNKMRKLQQLVPNCHKTDKVSVLDKTIEYMKNLQLQLQMMSTVGVNPYFLPATLGFGMHNHMLTAMASAHGLNPANHMMPSPLIPALNWPLPPFTNISFPHSSSQSLFLTTSSPASSPQSLHGLVPYFPSFLDFSSHAMRRL
binding [7]: no binding
binding [2]: no binding
binding [3]: binds

B4: LONG HYPOCOTYL IN FAR-RED 1 (HFR1), split Venus fusion for BiFC (protein, UniProt Q9FE22 1-292)
chain: MSNNQAFMELGWRNDVGSLAVKDQGMMSERARSDEDRLINGLKWGYGYFDHDQTDNYLQIVPEIHKEVENAKEDLLVVVPDEHSETDDHHHIKDFSERSDHRFYLRNKHENPKKRRIQVLSSDDESEEFTREVPSVTRKGSKRRRRDEKMSNKMRKLQQLVPNCHKTDKVSVLDKTIEYMKNLQLQLQMMSTVGVNPYFLPATLGFGMHNHMLTAMASAHGLNPANHMMPSPLIPALNWPLPPFTNISFPHSSSQSLFLTTSSPASSPQSLHGLVPYFPSFLDFSSHAMRRL
binding [1]: no binding

B5: ATBS1-… FACTOR 2 (AIF2), split Venus fusion for BiFC (protein, UniProt Q9C8Z9 1-221)
chain: MASLISDIEPPTSTTSDLVRRKKRSSASSAASSRSSASSVSGEIHARWRSEKQQRIYSAKLFQALQQVRLNSSASTSSSPTAQKRGKAVREAADRALAVSARGRTLWSRAILANRIKLKFRKQRRPRATMAIPAMTTVVSSSSNRSRKRRVSVLRLNKKSIPDVNRKVRVLGRLVPGCGKQSVPVILEEATDYIQALEMQVRAMNSLVQLLSSYGSAPPPI
binding [1]: binds

B6: ATBS1 (ACTIVATION-TAGGED BRI1 SUPPRESSOR 1)-… FACTOR 2 (AIF2), GAL4 activation domain fusion (protein, UniProt Q9C8Z9 1-221)
chain: MASLISDIEPPTSTTSDLVRRKKRSSASSAASSRSSASSVSGEIHARWRSEKQQRIYSAKLFQALQQVRLNSSASTSSSPTAQKRGKAVREAADRALAVSARGRTLWSRAILANRIKLKFRKQRRPRATMAIPAMTTVVSSSSNRSRKRRVSVLRLNKKSIPDVNRKVRVLGRLVPGCGKQSVPVILEEATDYIQALEMQVRAMNSLVQLLSSYGSAPPPI
binding [6]: binds
binding [2]: binds

B7: PHYTOCHROME RAPIDLY REGULATED 1 (PAR1), split Venus fusion for BiFC (protein, UniProt Q9SJH0 1-118)
chain: MEETLATPDATRRSLSPSCSATVKSRAAGFERRTKRRLSETNASVREDREEAEEEEDEVKEKIEALQRIIPGGAALGVDALFEETAGYILSLQCQIKTIKVLTSFLQRIDQEDMKFGG
binding [1]: binds

B8: PHYTOCHROME RAPIDLY REGULATED 1 (PAR1), GAL4 two-hybrid fusion, full-length CDS (protein, UniProt Q9SJH0 1-118)
chain: MEETLATPDATRRSLSPSCSATVKSRAAGFERRTKRRLSETNASVREDREEAEEEEDEVKEKIEALQRIIPGGAALGVDALFEETAGYILSLQCQIKTIKVLTSFLQRIDQEDMKFGG
binding [2]: binds

B9: PHYTOCHROME-… FACTOR 5 (PIF5), GAL4 activation domain fusion (protein, UniProt Q84LH8 1-444)
chain: MEQVFADWNFEDNFHMSTNKRSIRPEDELVELLWRDGQVVLQSQARREPSVQVQTHKQETLRKPNNIFLDNQETVQKPNYAALDDQETVSWIQYPPDDVIDPFESEFSSHFFSSIDHLGGPEKPRTIEETVKHEAQAMAPPKFRSSVITVGPSHCGSNQSTNIHQATTLPVSMSDRSKNVEERLDTSSGGSSGCSYGRNNKETVSGTSVTIDRKRKHVMDADQESVSQSDIGLTSTDDQTMGNKSSQRSGSTRRSRAAEVHNLSERRRRDRINERMKALQELIPHCSRTDKASILDEAIDYLKSLQMQLQVMWMGSGMAAAAAAAASPMMFPGVQSSPYINQMAMQSQMQLSQFPVMNRSAPQNHPGLVCQNPVQLQLQAQNQILSEQLARYMGGIPQMPPAGNQMQTVQQQPADMLGFGSPAGPQSQLSAPATTDSLHMGKIG
binding [2]: no binding
binding [5]: binds
binding [8]: binds
